Consider two substances from PMC6794377.

These are yes or no findings as the source states them, for the method shown. For some assays here: Binding calls can cover weak binding; strength is not graded here. For some assays here: Where a sequence is shown, tags or fusion partners need not be part of it. For some assays here: In cells and extracts the contact can be indirect.

Experiment [1] addresses T1, TLN161, N-terminal appended domain of hThrRS-L (Met1-Ile161), Gal4 DNA binding domain fusion (human) (UniProt A2RTX5).
T1 sequence: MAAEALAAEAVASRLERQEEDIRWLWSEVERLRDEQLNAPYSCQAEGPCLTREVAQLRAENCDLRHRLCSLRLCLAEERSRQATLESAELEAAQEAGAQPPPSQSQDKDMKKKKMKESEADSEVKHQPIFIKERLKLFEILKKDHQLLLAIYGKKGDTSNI
The experiment can be described thus: two-hybrid; pairwise: pGADT7 construct and pGBKT7 construct together in Y2HGold; growth on QDO/X/A (SD/QDO/X) plates.

For experiment [2], the target named is T2, native p43 (AIMP1), endogenous in human cells (human (endogenous in HEK293T and HeLa)) (UniProt Q12904).
T2 sequence: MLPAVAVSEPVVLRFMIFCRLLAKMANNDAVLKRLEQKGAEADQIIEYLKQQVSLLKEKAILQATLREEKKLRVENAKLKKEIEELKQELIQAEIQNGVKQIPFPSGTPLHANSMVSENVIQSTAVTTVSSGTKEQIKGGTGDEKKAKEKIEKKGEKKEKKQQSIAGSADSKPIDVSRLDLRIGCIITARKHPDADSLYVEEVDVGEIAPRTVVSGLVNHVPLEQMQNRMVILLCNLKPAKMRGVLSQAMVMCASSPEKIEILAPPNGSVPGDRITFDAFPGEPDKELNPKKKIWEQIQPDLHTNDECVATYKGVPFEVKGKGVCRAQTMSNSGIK
Briefly: co-IP; transfected HEK293T lysate, IP with anti-p43 antibodies; western blotting. (In general: A western blot detects proteins with antibodies after separation by electrophoresis.)

Turning to “p43(26-78), Gal4 activation domain fusion (human) (domain or fragment)”, the binding entry in experiment [1] is given as “binds”. With “α-tubulin, endogenous in HEK293T (human (endogenous in HEK293T))”, the binding entry in experiment [2] was “no binding”.
